No constants are given. Whether binding was seen depends on the method and setting. Binding seen in cells or lysates may run through a third protein. Some binding calls cover weakened binding; strength is not graded here. Sequences can lack the tags named with a protein. Blank lines part the entries; values can stand above or below the binder they belong to.
How the values were obtained:
[1] = target: T1, Flag-tagged LMO4 (full-length) (UniProt P61968); assay: co-immunoprecipitation (anti-Flag) / anti-HA western blot, transfected 293T cells
T1 sequence (looked up): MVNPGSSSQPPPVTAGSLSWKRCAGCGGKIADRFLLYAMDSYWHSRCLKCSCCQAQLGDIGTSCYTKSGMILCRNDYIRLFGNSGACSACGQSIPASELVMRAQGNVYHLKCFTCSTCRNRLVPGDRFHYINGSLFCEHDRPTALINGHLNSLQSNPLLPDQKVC

Protein sequences, listed by entry. Tags and fused reporters are not part of them.
UniProt P38398: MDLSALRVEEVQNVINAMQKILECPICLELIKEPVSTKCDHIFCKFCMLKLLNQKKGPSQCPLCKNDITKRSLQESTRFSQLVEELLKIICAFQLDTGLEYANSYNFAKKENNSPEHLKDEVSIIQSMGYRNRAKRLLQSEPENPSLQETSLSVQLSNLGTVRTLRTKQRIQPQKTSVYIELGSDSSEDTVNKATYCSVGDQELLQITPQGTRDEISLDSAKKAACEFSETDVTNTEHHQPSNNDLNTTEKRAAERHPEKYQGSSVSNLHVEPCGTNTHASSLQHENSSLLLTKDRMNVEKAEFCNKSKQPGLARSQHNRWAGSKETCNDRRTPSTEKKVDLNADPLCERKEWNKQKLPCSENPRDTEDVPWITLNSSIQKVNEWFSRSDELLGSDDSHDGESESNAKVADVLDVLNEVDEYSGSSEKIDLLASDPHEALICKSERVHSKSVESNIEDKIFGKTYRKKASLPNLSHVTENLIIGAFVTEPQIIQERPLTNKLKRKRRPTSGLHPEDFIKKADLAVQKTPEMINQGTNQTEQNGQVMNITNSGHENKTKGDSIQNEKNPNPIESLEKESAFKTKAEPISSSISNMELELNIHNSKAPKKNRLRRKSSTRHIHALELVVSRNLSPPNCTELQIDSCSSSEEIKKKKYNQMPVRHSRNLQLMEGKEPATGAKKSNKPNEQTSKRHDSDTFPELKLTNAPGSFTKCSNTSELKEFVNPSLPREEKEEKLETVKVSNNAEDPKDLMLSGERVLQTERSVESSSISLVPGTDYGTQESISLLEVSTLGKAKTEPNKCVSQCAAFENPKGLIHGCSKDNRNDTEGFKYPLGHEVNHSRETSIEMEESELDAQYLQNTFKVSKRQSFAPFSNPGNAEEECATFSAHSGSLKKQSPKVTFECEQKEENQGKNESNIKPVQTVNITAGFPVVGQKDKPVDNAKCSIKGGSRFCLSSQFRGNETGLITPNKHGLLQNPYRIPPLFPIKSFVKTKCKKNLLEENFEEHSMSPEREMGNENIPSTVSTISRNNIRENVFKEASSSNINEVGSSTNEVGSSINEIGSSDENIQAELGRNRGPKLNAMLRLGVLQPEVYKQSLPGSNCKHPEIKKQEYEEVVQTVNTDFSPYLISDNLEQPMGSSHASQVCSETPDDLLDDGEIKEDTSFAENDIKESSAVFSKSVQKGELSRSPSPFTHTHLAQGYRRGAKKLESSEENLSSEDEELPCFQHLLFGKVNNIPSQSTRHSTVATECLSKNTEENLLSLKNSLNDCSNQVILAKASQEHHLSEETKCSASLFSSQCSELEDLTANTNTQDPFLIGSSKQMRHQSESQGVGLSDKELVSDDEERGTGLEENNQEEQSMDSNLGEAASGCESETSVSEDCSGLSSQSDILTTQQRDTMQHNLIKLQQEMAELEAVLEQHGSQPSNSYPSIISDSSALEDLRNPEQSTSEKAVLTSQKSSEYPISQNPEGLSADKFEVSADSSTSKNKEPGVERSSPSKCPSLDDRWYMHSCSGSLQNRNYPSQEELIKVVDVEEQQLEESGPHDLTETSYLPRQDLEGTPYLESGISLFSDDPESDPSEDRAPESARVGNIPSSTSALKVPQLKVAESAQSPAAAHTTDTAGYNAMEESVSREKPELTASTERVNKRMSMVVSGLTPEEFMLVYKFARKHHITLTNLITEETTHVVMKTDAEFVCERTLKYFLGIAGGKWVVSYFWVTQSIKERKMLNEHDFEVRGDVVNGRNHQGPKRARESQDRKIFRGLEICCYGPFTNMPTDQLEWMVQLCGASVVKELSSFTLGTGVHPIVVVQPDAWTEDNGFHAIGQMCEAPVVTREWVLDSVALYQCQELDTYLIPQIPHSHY

[2] = target: CtIP (residues 45-897), human, from pCMV-HA-ns311 (human) (UniProt Q99708); assay: co-immunoprecipitation (anti-Flag) / anti-CtIP western blot, transfected 293T cells
[3] = target: CtIP (residues 45-897), human, from pCMV-HA-ns311 (human) (UniProt Q99708); assay: co-immunoprecipitation (anti-Flag) / anti-CtIP western blot, transfected 293T cells (FIG. 6B)
[4] = target: CtIP (residues 45-897), human, from pCMV-HA-ns311 (human) (UniProt Q99708); assay: co-immunoprecipitation / western blot, transfected 293T cells
[5] = target: myc-tagged wild-type BRCA1 (human) (UniProt P38398); assay: co-immunoprecipitation (anti-myc) / anti-Flag western blot, transfected 293T cells; also seen without exogenous CtIP
[6] = target: CtIP (residues 45-897), human, from pCMV-HA-ns311 (human) (UniProt Q99708); assay: co-immunoprecipitation from transfected 293T cells (FIG. 9A, 9C)
[7] = target: CtIP (residues 45-897), human, from pCMV-HA-ns311 (human) (UniProt Q99708); assay: co-immunoprecipitation / western blot, transfected 293T cells (FIG. 6A)
[8] = target: myc-tagged wild-type BRCA1 (human) (UniProt P38398); assay: co-immunoprecipitation (anti-myc) / anti-Flag western blot, transfected 293T cells (FIG. 9A)

- binding [1]: binds
B1: HA-CtIP (371-897) (protein, human, UniProt Q99708 371-897, looked up, not shown: small tags and cut ends)
chain: RLEKTRSKSEDSALFTHHSLGSEVNKIIIQSSNKQILINKNISESLGEQNRTEYGKDSNTDKHLEPLKSLGGRTSKRKKTEEESEHEVSCPQASFDKENAFPFPMDNQFSMNGDCVMDKPLDLSDRFSAIQRQEKSQGSETSKNKFRQVTLYEALKTIPKGFSSSRKASDGNCTLPKDSPGEPCSQECIILQPLNKCSPDNKPSLQIKEENAVFKIPLRPRESLETENVLDDIKSAGSHEPIKIQTRSDHGGCELASVLQLNPCRTGKIKSLQNNQDVSFENIQWSIDPGADLSQYKMDVTVIDTKDGSQSKLGGETVDMDCTLVSETVLLKMKKQEQKGEKSSNEERKMNDSLEDMFDRTTHEEYESCLADSFSQAADEEEELSTATKKLHTHGDKQDKVKQKAFVEPYFKGDERETSLQNFPHIEVVRKKEERRKLLGHTCKECEIYYADMPAEEREKKLASCSRHRFRYIPPNTPENFWEVGFPSTQTCMERGYIKEDLDPCPRPKRRQPYNAIFSPKGKEQKT

- binding [1]: binds
B2: HA-CtIP (620-897) (protein, human, UniProt Q99708 620-897, looked up, not shown: small tags and cut ends)
chain: HGGCELASVLQLNPCRTGKIKSLQNNQDVSFENIQWSIDPGADLSQYKMDVTVIDTKDGSQSKLGGETVDMDCTLVSETVLLKMKKQEQKGEKSSNEERKMNDSLEDMFDRTTHEEYESCLADSFSQAADEEEELSTATKKLHTHGDKQDKVKQKAFVEPYFKGDERETSLQNFPHIEVVRKKEERRKLLGHTCKECEIYYADMPAEEREKKLASCSRHRFRYIPPNTPENFWEVGFPSTQTCMERGYIKEDLDPCPRPKRRQPYNAIFSPKGKEQKT

- binding [2]: binds
- binding [3]: binds
B3: Flag-tagged first LIM domain of LMO4 (residues 1-82) (protein, UniProt P61968 1-82, looked up, not shown: small tags and cut ends)
chain: MVNPGSSSQPPPVTAGSLSWKRCAGCGGKIADRFLLYAMDSYWHSRCLKCSCCQAQLGDIGTSCYTKSGMILCRNDYIRLFG

- binding [4]: binds
- binding [5]: binds
- binding [6]: binds
- binding [7]: binds
- binding [8]: binds
B4: Flag-tagged LMO4 (full-length) (protein, UniProt P61968 1-165, looked up, not shown: small tags and cut ends)
chain: MVNPGSSSQPPPVTAGSLSWKRCAGCGGKIADRFLLYAMDSYWHSRCLKCSCCQAQLGDIGTSCYTKSGMILCRNDYIRLFGNSGACSACGQSIPASELVMRAQGNVYHLKCFTCSTCRNRLVPGDRFHYINGSLFCEHDRPTALINGHLNSLQSNPLLPDQKVC

- binding [1]: binds
B5: HA-CtIP (45-371) (protein, human, UniProt Q99708 45-371, looked up, not shown: small tags and cut ends)
chain: LKQERILDAQRLEEFFTKNQQLREQQKVLHETIKVLEDRLRAGLCDRCAVTEEHMRKKQQEFENIRQQNLKLITELMNERNTLQEENKKLSEQLQQKIENDQQHQAAELECEEDVIPDSPITAFSFSGVNRLRRKENPHVRYIEQTHTKLEHSVCANEMRKVSKSSTHPQHNPNENEILVADTYDQSQSPMAKAHGTSSYTPDKSSFNLATVVAETLGLGVQEESETQGPMSPLGDELYHCLEGNHKKQPFEESTRNTEDSLRFSDSTSKTPPQEELPTRVSSPVFGATSSIKSGLDLNTSLSPSLLQPGKKKHLKTLPFSNTCISR

— US20050048528A1
